Measurements published in paper PMC3196589, “Fluorescent Peptide Biosensor for Probing the Relative Abundance of Cyclin-Dependent Kinases in Living Cells” (PLoS ONE, 2011).
These are yes or no findings as the source states them, for the method shown.

Biological target: T1, Ctrl-FITC peptide
T1 sequence (peptide, FITC on the unique cysteine): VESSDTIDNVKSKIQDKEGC
Assay: other fluorescence titration; 200 nM FITC-labelled peptide titrated with purified recombinant protein; 25°C; 200 ul potassium phosphate buffer, pH 7.2, 150 mM NaCl; 96-well microplates; excitation 485 nm, emission 520 nm; fit with a standard quadratic equation; both purified

binding: no binding
Substance: GST-Cyclin A
